# In patent publication US20080026076A1 (priority 2003, published 2008):
# Marks after values point to notes of the source that are not given here.
# Test system: rats with abdominal aortic constriction (AAC) or sham operated
# Test: Post-sacrifice morphometric measurements (body, heart and organ weights, heart rate) to assess cardiac hypertrophy
# Assay type: in vivo, rat
# Conditions: quercetin diet, mean ± SEM
# Source text: In this procedure the abdominal aorta is constricted to increase the afterload on the heart and produce pressure overload. […] Rats consumed this diet for 7 days.
# On the 8th day, 5 rats were surgically modeled for pressure overload by constricting the abdominal aorta to a diameter of 0.63 mm with a Weck hemoclip. The other 5 rats were sham operated (anesthetized and the aorta exposed, but not constricted). […] Another group of 10 rats were placed on a standard diet with no supplement and treated in an identical fashion with 5 surgically modeled for pressure overload and 5 sham operated. […] Two weeks after surgery post-sacrifice morphometric measurements are obtained by measuring total heart weight, left ventricle weight, and calculating heart:body weight and left ventricle:body weight ratios to assess cardiac mass and cardiac hypertrophy.
# Post-sacrifice morphometric measurements are obtained by measuring body weight, total heart weight, calculating heart:body weight ratios and heart rate to assess cardiac mass and cardiac hypertrophy.
smiles,measurement,setting,value
"O=c1c(O)c(-c2ccc(O)c(O)c2)oc2cc(O)cc(O)c12 [quercetin, 3,5,7,3′,4′-pentahydroxyflavone]",Body wt.,AAC + Q (n = 9),342 ± 7 g
same,Heart Rate,AAC + Q (n = 9),414 ± 9^b BPM
same,Liver wt.,AAC + Q (n = 9),10.6 ± 0.6 g
same,Lung wt.,AAC + Q (n = 9),1.48 ± 0.05 g
same,Body wt.,Sham + Q (n = 10),342 ± 10 g
same,Heart Rate,Sham + Q (n = 10),402 ± 9^b BPM
same,Liver wt.,Sham + Q (n = 10),11.1 ± 0.7 g
same,Lung wt.,Sham + Q (n = 10),1.50 ± 0.05 g
